# Assay results from the supplement of paper PMC8728848.
# This is one part of the list.
# Columns and labels:
# Assay in all cases: glycan array binding signal (z-score within array); higher = stronger binding
# Details in all cases: glycan notation: IUPAC condensed, linker removed
# [1] = test system: Fuc(a1-2)Gal(b1-4)GlcNAc(b1-6)GalNAc
# Outline: (§1)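 From the Consortium for Functional Glycomics database, 3228 arrays were curated, keeping only those whose protein sequence was available. Binding is given as a within-array Z-score averaged across arrays sharing a protein sequence and across linkers. Negative Z-scores can be read as non-binding.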
# [2] = test system: Fuc(a1-2)Gal(b1-4)GlcNAc6S
# Outline: as §1
# Fuc(a1-2)Gal(b1-4)GlcNAc = test system: Fuc(a1-2)Gal(b1-4)GlcNAc
# Outline: as §1
# Fuc(a1-2)Gal(b1-4)Glc = test system: Fuc(a1-2)Gal(b1-4)Glc
# Outline: as §1
# [3] = test system: Fuc(a1-2)Gal(b1-4)[Fuc(a1-3)]GlcNAc(b1-2)Man(a1-3)[Fuc(a1-2)Gal(b1-4)[Fuc(a1-3)]GlcNAc(b1-2)Man(a1-6)]Man(b1-4)GlcNAc(b1-4)[Fuc(a1-6)]GlcNAc
# Outline: as §1
# [4] = test system: Fuc(a1-2)Gal(b1-4)[Fuc(a1-3)]GlcNAc(b1-2)[Fuc(a1-2)Gal(b1-4)[Fuc(a1-3)]GlcNAc(b1-4)]Man(a1-3)[Fuc(a1-2)Gal(b1-4)[Fuc(a1-3)]GlcNAc(b1-2)Man(a1-6)]Man(b1-4)GlcNAc(b1-4)GlcNAc
# Outline: as §1
# [5] = test system: Fuc(a1-2)Gal(b1-4)[Fuc(a1-3)]GlcNAc(b1-3)Gal(b1-4)[Fuc(a1-3)]GlcNAc(b1-3)Gal(b1-4)[Fuc(a1-3)]GlcNAc
# Outline: as §1
# [6] = test system: Fuc(a1-2)Gal(b1-4)[Fuc(a1-3)]GlcNAc(b1-3)Gal(b1-4)[Fuc(a1-3)]GlcNAc
# Outline: as §1
# [7] = test system: Fuc(a1-2)Gal(b1-4)[Fuc(a1-3)]GlcNAc(b1-3)GalNAc
# Outline: as §1
# [8] = test system: Fuc(a1-2)Gal(b1-4)[Fuc(a1-3)]GlcNAc(b1-3)[Neu5Ac(a2-6)Gal(b1-4)GlcNAc(b1-6)]Gal(b1-4)Glc
# Outline: as §1
# [9] = test system: Fuc(a1-2)Gal(b1-4)[Fuc(a1-3)]GlcNAc
# Outline: as §1
# [10] = test system: Fuc(a1-2)Gal3S(b1-4)GlcNAc
# Outline: as §1
# [11] = test system: Fuc(a1-2)Gal6S(b1-3)GlcNAc6S
# Outline: as §1
# [12] = test system: Fuc(a1-2)Gal6S(b1-3)GlcNAc
# Outline: as §1
# [13] = test system: Fuc(a1-2)Gal6S(b1-4)Glc6S
# Outline: as §1
# Fuc(a1-2)Gal6S(b1-4)Glc = test system: Fuc(a1-2)Gal6S(b1-4)Glc
# Outline: as §1
# Fuc(a1-2)Gal = test system: Fuc(a1-2)Gal
# Outline: as §1
# [14] = test system: Fuc(a1-2)[Gal(a1-3)]Gal(b1-3)GalNAc(b1-3)Gal(a1-4)Gal(b1-4)Glc
# Outline: as §1
# [15] = test system: Fuc(a1-2)[Gal(a1-3)]Gal(b1-3)GalNAc
# Outline: as §1
# [16] = test system: Fuc(a1-2)[Gal(a1-3)]Gal(b1-3)GlcNAc(b1-2)Man(a1-3)[Fuc(a1-2)[Gal(a1-3)]Gal(b1-3)GlcNAc(b1-2)Man(a1-6)]Man(b1-4)GlcNAc(b1-4)GlcNAc
# Outline: as §1
# [17] = test system: Fuc(a1-2)[Gal(a1-3)]Gal(b1-3)GlcNAc(b1-2)Man(a1-3)[Fuc(a1-2)[Gal(a1-3)]Gal(b1-3)GlcNAc(b1-2)Man(a1-6)]Man(b1-4)GlcNAc(b1-4)[Fuc(a1-6)]GlcNAc
# Outline: as §1
# [18] = test system: Fuc(a1-2)[Gal(a1-3)]Gal(b1-3)GlcNAc(b1-3)GalNAc
# Outline: as §1
# [19] = test system: Fuc(a1-2)[Gal(a1-3)]Gal(b1-3)GlcNAc(b1-6)GalNAc
# Outline: as §1
# [20] = test system: Fuc(a1-2)[Gal(a1-3)]Gal(b1-3)GlcNAc
# Outline: as §1
# [21] = test system: Fuc(a1-2)[Gal(a1-3)]Gal(b1-4)GlcNAc(b1-2)Man(a1-3)[Fuc(a1-2)[Gal(a1-3)]Gal(b1-4)GlcNAc(b1-2)Man(a1-6)]Man(b1-4)GlcNAc(b1-4)GlcNAc
# Outline: as §1
# [22] = test system: Fuc(a1-2)[Gal(a1-3)]Gal(b1-4)GlcNAc(b1-2)Man(a1-3)[Fuc(a1-2)[Gal(a1-3)]Gal(b1-4)GlcNAc(b1-2)Man(a1-6)]Man(b1-4)GlcNAc(b1-4)[Fuc(a1-6)]GlcNAc
# Outline: as §1
# [23] = test system: Fuc(a1-2)[Gal(a1-3)]Gal(b1-4)GlcNAc(b1-2)Man
# Outline: as §1
# [24] = test system: Fuc(a1-2)[Gal(a1-3)]Gal(b1-4)GlcNAc(b1-3)GalNAc
# Outline: as §1
# [25] = test system: Fuc(a1-2)[Gal(a1-3)]Gal(b1-4)GlcNAc(b1-3)[Fuc(a1-2)[Gal(a1-3)]Gal(b1-4)GlcNAc(b1-6)]GalNAc
# Outline: as §1
# [26] = test system: Fuc(a1-2)[Gal(a1-3)]Gal(b1-4)GlcNAc(b1-6)GalNAc
# Outline: as §1
# [27] = test system: Fuc(a1-2)[Gal(a1-3)]Gal(b1-4)GlcNAc
# Outline: as §1
# [28] = test system: Fuc(a1-2)[Gal(a1-3)]Gal(b1-4)Glc
# Outline: as §1
substance,measurement,setting,value
MpAFP RI GFP (Marinomonas primoryensis),glycan array binding signal (z-score),[1],0.939
same,glycan array binding signal (z-score),[2],-0.006
same,glycan array binding signal (z-score),Fuc(a1-2)Gal(b1-4)GlcNAc,-0.23
same,glycan array binding signal (z-score),Fuc(a1-2)Gal(b1-4)Glc,-0.404
same,glycan array binding signal (z-score),[3],1.18
same,glycan array binding signal (z-score),[4],1.36
same,glycan array binding signal (z-score),[5],-0.005
same,glycan array binding signal (z-score),[6],-0.013
same,glycan array binding signal (z-score),[7],0.415
same,glycan array binding signal (z-score),[8],-0.494
same,glycan array binding signal (z-score),[9],0.405
same,glycan array binding signal (z-score),[10],-0.61
same,glycan array binding signal (z-score),[11],1.15
same,glycan array binding signal (z-score),[12],-0.023
same,glycan array binding signal (z-score),[13],-0.375
same,glycan array binding signal (z-score),Fuc(a1-2)Gal6S(b1-4)Glc,-0.628
same,glycan array binding signal (z-score),Fuc(a1-2)Gal,0.111
same,glycan array binding signal (z-score),[14],-0.086
same,glycan array binding signal (z-score),[15],-0.433
same,glycan array binding signal (z-score),[16],-0.254
same,glycan array binding signal (z-score),[17],-0.096
same,glycan array binding signal (z-score),[18],-0.43
same,glycan array binding signal (z-score),[19],-0.027
same,glycan array binding signal (z-score),[20],-0.449
same,glycan array binding signal (z-score),[21],1.16
same,glycan array binding signal (z-score),[22],-0.246
same,glycan array binding signal (z-score),[23],-0.289
same,glycan array binding signal (z-score),[24],-0.744
same,glycan array binding signal (z-score),[25],-0.23
same,glycan array binding signal (z-score),[26],-0.127
same,glycan array binding signal (z-score),[27],-0.575
same,glycan array binding signal (z-score),[28],0.628

# A run of entries from the list above, as a working copy:
substance,measurement,setting,value
MpAFP RI GFP (Marinomonas primoryensis),glycan array binding signal (z-score),[23],-0.289
same,glycan array binding signal (z-score),[24],-0.744
